Drawing on article PMC5996148, this text covers binding signal for one sequence.

Where “and” joins values, the source holds several entries; their conditions need not be identical. Identical values can stand only once. Some of the results follow.

What all share (experiment): protein microarray (ProtoArray v5.0), streptavidin-Alexa Fluor 647
What all share (conditions): 3'-biotin; 20 mM Tris (pH 7.5), 5 mM MgCl2, 100 mM KCl, 0.1% Tween-20, A/T-rich and random oligonucleotide blockers; temperature not stated; high values mean tight binding

Experiment [1] deals with Caspase recruitment domain-containing protein 9 (human).
Experiment [2] relates to Caspase-1 inhibitor INCA (human).
Experiment [3] has as its system Cathepsin Z (human).
In experiment [4] the test system is Cation transport regulator-like protein 2 (human).
Experiment [5] concerns Cbp/p300-interacting transactivator 1 (human).
For experiment [6], the system named is Cell differentiation protein RCD1 homolog (human).
In experiment [7] the test system is Cell growth regulator with RING finger domain protein 1 (human).
Experiment [8] concerns Centromere protein L (human).
The subject of experiment [9] is Centromere protein Q (human).
In experiment [10] the test system is Centromere protein T (human).

As for “GGGAGGCTGAGGCAGG [G4-1 biotinylated (PQS2)]”, the binding signal was -0.336 z-score and -0.351 z-score in experiment [1]; -0.291 z-score in experiment [2]; -0.331 z-score in experiment [3]; -0.315 z-score and -0.306 z-score in experiment [4]; -0.323 z-score in experiment [5]; -0.345 z-score in [6]. Also, the binding signal in experiment [7] was -0.302 z-score; in experiment [8], -0.284 z-score; in [9], -0.376 z-score; in experiment [10], -0.253 z-score.
